From PubChem BioAssay AID602313 (National Center for Advancing Translational Sciences (NCATS), 2012)
Hit rate of the full screen: of about 390,000 compounds, about 760 (0.19%) were called active. Inconclusive results, whose numbers are uncertain, are shown with a selection of clear calls. Calls come from the whole dose curve; as a rule, active = well fitted inhibition curve with a large enough effect; inconclusive = small, poorly fitted or top-dose-only effect; inactive = flat fitted curve, though single readings scatter. Where the call is inconclusive, the potency comes from a doubtful curve fit.
Potency is the fitted concentration of half-maximal effect.

Experiment: qHTS for Inhibitors of Vif-A3F Interactions: qHTS; note: nearly all actives have a fitted effect of over 65% in size; for activity, negative = active: % of control where 0% means no effect
Details: HeLa A3F-eYFP + Vif (tagged APOBEC3F with the HIV-1 protein that degrades it), YFP fluorescence increase; series mostly up to 46.1 µM; activity, negative = active: at the top concentration
Method in brief: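 Fluorescence increase (Ex 488/Em 500-530) after overnight compound treatment at 37 deg C flags inhibition of Vif-driven A3F-eYFP loss in stable HeLa A3F-eYFP/Vif cells seeded overnight beforehand.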
With `Clc1ccc(OCc2nn3c(-c4ccncc4)nnc3s2)cc1` the Potency was inconclusive: 20 µM [inhibitor, single point]. With `CCn1cc(CN2CCCC(C(=O)Nc3cccc(-c4cc5ccccc5[nH]4)c3)C2)cn1` (stereo not drawn) the Potency was inconclusive: 35.5 µM [inhibitor, single point]. In the case of `Cc1cc(C)c(S(=O)(=O)Nc2ccc3c4c(cccc24)CC3)c(C)c1`, the Potency is reported as inconclusive: 20 µM [inhibitor, partial curve, poor fit]. For `COc1ccc(Cl)cc1NS(=O)(=O)c1cccc(C(=O)NC2CC2)c1`, the Potency was inconclusive: 2 µM [inhibitor, partial curve, poor fit]. With `COc1ccc(-c2ccc(C(=O)O)o2)c([N+](=O)[O-])c1` the Potency was inconclusive: 35.5 µM [inhibitor, single point]. For `CC1(C)CC(=O)C2=C(C1)OC1=C(C(=O)CC(C)(C)C1)C2c1cc([N+](=O)[O-])cc([N+](=O)[O-])c1O`, the “activity, negative = active” value was inactive: 7.88%. For `O=C(CSc1nncc2ccccc12)Nc1ccc(F)cc1`, the “activity, negative = active” value was inactive: -3.75%. For `Cc1ccc(-c2nn(-c3ccccc3)cc2/C=C2\SC(=S)N(CCCCCC(=O)O)C2=O)o1`, the Potency was inconclusive: 35.5 µM [inhibitor, single point]. In the case of `CN1CCc2c(sc(NC(=O)CSc3ccccc3)c2-c2nc3ccccc3s2)C1`, the Potency is reported as inconclusive: 2.24 µM [inhibitor, partial curve, poor fit]. For `CC(=O)c1ccc(NC(=O)c2cc(-c3ccc(C)s3)nc3ccccc23)cc1`, the “activity, negative = active” value was inactive: 2.62%. For `CC(C)c1ccc(OC(=O)c2cccc(S(=O)(=O)N3CCN(C)CC3)c2)cc1`, the Potency was inconclusive: 8.91 µM [inhibitor, partial curve, poor fit]. With `CCC(c1nnc(SCC(=O)Nc2cc(C)on2)o1)N(C)C` (stereo not drawn) the “activity, negative = active” value was inactive: 0.886%. With `NNC(=O)c1oc2nc(-c3ccc(Cl)cc3)cc(-c3ccccc3)c2c1N` the Potency was inconclusive: 20 µM [inhibitor, partial curve, poor fit]. With `CN(C)CCNC(=O)C1CCN(Cc2cc3ccccc3n2Cc2ccccc2)CC1` the Potency was inconclusive: 22.4 µM [inhibitor, single point]. In the case of `CCCN(CCC)CCCNC(=O)c1cc2c(-c3ccc(OC)c(OC)c3)nn(C)c2s1`, the Potency is reported as inconclusive: 25.1 µM [inhibitor, single point]. With `O=C(CSc1nc2c(sc3ccccc32)c(=O)n1CCCN1CCCC1)NCc1ccccc1` the Potency was inconclusive: 6.31 µM [inhibitor, single point]. With `Fc1ccc(CNC(=S)NCc2cccc(Cl)c2)cc1` the Potency was inconclusive: 35.5 µM [inhibitor, single point]. With `NS(=O)(=O)c1ccc(NC(=O)c2ccc3c(c2)CCCC3)cc1` the Potency was inconclusive: 35.5 µM [inhibitor, single point]. For `Cc1cccc(/C=N/NC(=O)Cc2ccc(Cl)cc2)c1O`, the Potency was inconclusive: 35.5 µM [inhibitor, single point]. With `Cc1cccc(C)c1NC(=S)N(Cc1ccccc1)Cc1cccs1` the Potency was inconclusive: 35.5 µM [inhibitor, single point]. For `COc1cccc(NC(=O)CSC2=Nc3ccccc3C3=NC(CCC(=O)NCCc4ccccc4)C(=O)N23)c1` (stereo not drawn), the “activity, negative = active” value was inactive: -9.63%. In the case of `O=C(c1cnn(-c2cccc(F)c2)c1)c1ccccc1O`, the “activity, negative = active” value is reported as inactive: 7.28%. With `O=C(Nc1ccc(F)cc1C(F)(F)F)C1CCN(c2ncccn2)CC1` the “activity, negative = active” value was inactive: -1.42%. For `Cc1ccc(C(=O)N/C(=C\c2ccc(-c3ccccc3[N+](=O)[O-])o2)C(=O)NCCCN(C)C)cc1`, the Potency was inconclusive: 22.4 µM [inhibitor, single point]. With `Oc1[nH]c2ccccc2c1N=Nc1ccccc1` the Potency was active: 25.1 µM. For `COc1ccc(-c2ccc3c(c2)S(=O)(=O)c2cccc(C(=O)NCCOc4ccccc4)c2C3=O)cc1OC`, the Potency was inconclusive: 15.8 µM [inhibitor, partial curve, poor fit]. In the case of `Cc1ccc(-c2csc(NC(=O)C3=COCCO3)n2)cc1C`, the Potency is reported as inconclusive: 20 µM [inhibitor, single point]. For `CCC1=Nc2cc(C(=O)NC3CCC(C)CC3)ccc2Sc2ccc(C)cc21` (stereo not drawn), the Potency was inconclusive: 11.2 µM [inhibitor, partial curve, poor fit]. In the case of `COc1ccccc1NC(=O)c1sc2nc(C)c(C(=O)Nc3ccc(C)cc3C)c(-c3ccco3)c2c1N`, the Potency is reported as inconclusive: 3.98 µM [inhibitor, full curve, poor fit]. With `CCOc1cc(/C=N/NC(=O)c2ccncc2)ccc1OS(C)(=O)=O` the “activity, negative = active” value was inactive: -5.17%. With `O=C(N/N=C/c1cc(Cl)ccc1O)c1cccnc1` the Potency was inconclusive: 5.62 µM [inhibitor, single point]. With `O=CN1CCN(C(=S)NC(=O)c2ccc(Cl)cc2)CC1` the Potency was inconclusive: 35.5 µM [inhibitor, single point]. For `COCc1nnc(NC(=O)CSCc2ccccc2)s1`, the “activity, negative = active” value was inactive: 1.76%. With `C/C(=N\NC(=S)NCc1ccccc1)c1ccccc1` the Potency was inconclusive: 7.08 µM [inhibitor, partial curve, poor fit]. In the case of `COc1ccc(-c2nc(C#N)c(N3CCc4ccccc4C3)o2)cc1OC`, the Potency is reported as inconclusive: 7.08 µM [inhibitor, partial curve, poor fit]. With `CCOc1ccc(NC2=NCCC(=O)N2Cc2cccs2)cc1` the “activity, negative = active” value was inactive: -10.1%. In the case of `COc1ccc2ccccc2c1/C=N/NC(=O)c1sc(N)c(C#N)c1C`, the Potency is reported as inconclusive: 35.5 µM [inhibitor, single point]. With `CC(OC(=O)c1ccc2c(=O)n3c(nc2c1)CCCCC3)C(=O)Nc1ccc(Cl)cn1` (stereo not drawn) the Potency was inconclusive: 35.5 µM [inhibitor, single point]. In the case of `COCc1cc(C)nc2sc(C(=O)Nc3ccccc3OC)c(N)c12`, the Potency is reported as inconclusive: 0.891 µM [inhibitor, partial curve, poor fit]. For `CCOC(=O)Cn1c(=NC(=O)CN2C(=O)CCC2=O)sc2cc(S(N)(=O)=O)ccc21`, the Potency was inconclusive: 5.01 µM [inhibitor, single point]. For `COc1ccc(-c2csc(Nc3ccc(O)cc3)n2)cc1`, the Potency was inconclusive: 10 µM [inhibitor, partial curve, poor fit]. In the case of `O=C1C(O)CCN1Cc1ccccc1` (stereo not drawn), the Potency is reported as inconclusive: 12.6 µM [inhibitor, partial curve, poor fit]. With `C=CCNC(=O)COC(=O)c1c2c(nc3ccccc13)CCC2` the Potency was inconclusive: 1 µM [inhibitor, full curve]. With `CCCOc1ccc(NC(=O)CC2C(=O)N(c3cccc(OC)c3)C(=O)N2Cc2cccs2)cc1` (stereo not drawn) the “activity, negative = active” value was inactive: -0.131%. For `CCC(C)Sc1cccc(-c2nc3cc(C)ccn3c2NC2CCCCC2)c1` (stereo not drawn), the Potency was active: 22.4 µM. With `COc1ccc(S(=O)(=O)NCC(c2ccc(F)cc2)N2CCOCC2)cc1Br` (stereo not drawn) the Potency was inconclusive: 35.5 µM [inhibitor, single point]. With `COc1ccc(CN(C)CCc2ccccn2)cc1OC` the “activity, negative = active” value was inactive: -4.12%. With `CCCC1=[N+](CC(=O)c2ccc(C)cc2)CCn2cccc21` the Potency was inconclusive: 35.5 µM [inhibitor, single point]. For `CSC1=N/C(=C\c2ccc(C)s2)C(=O)S1`, the “activity, negative = active” value was inactive: -2.01%. For `Cc1ccc(-c2nnc(SCC(=O)NC3CCCC3)nc2-c2ccc(C)cc2)cc1`, the “activity, negative = active” value was inactive: 0.553%. For `CCOc1cc(/C=C2/SC(=S)N(Cc3ccccc3)C2=O)ccc1O`, the Potency was inconclusive: 28.2 µM [inhibitor, single point]. In the case of `O=C(Nc1sc2c(c1C(=O)O)CCC2)c1ccc(F)cc1`, the Potency is reported as inconclusive: 1.78 µM [inhibitor, partial curve, poor fit]. With `Cc1cc2c(cc1C)N(C(=O)CSC1=NCCS1)C(C)(C)c1ssc(=S)c1-2` the “activity, negative = active” value was inactive: 0.42%. For `CN(C)c1ccc(/C=C/C(=O)c2ccc3c(c2)OCO3)cc1`, the Potency was inconclusive: 35.5 µM [inhibitor, single point]. With `C#CCOCCOCCOCCNc1nc(N2CCN(C(=O)C([C@@H](C)O)n3cc([C@@H](N)CCCCN)nn3)CC2)nc(N2CCN(C(=O)[C@H](CCCCN)n3cc([C@@H](N)[C@H](C)CC)nn3)CC2)n1` (stereo partly drawn) the “activity, negative = active” value was inactive: 7.62%. In the case of `CC1CCN(C(=O)COc2coc(CN3CCc4ccccc43)cc2=O)CC1`, the Potency is reported as inconclusive: 2.51 µM [inhibitor, partial curve, poor fit]. For `O=C1NC(=Nc2ccc3ccccc3c2)S/C1=C/c1ccco1`, the Potency was inconclusive: 15.8 µM [inhibitor, single point]. With `CCc1ccc(C2c3[nH]c4ccccc4c3CCN2C(=O)CN2CCN(CC)CC2)cc1` (stereo not drawn) the Potency was inconclusive: 14.1 µM [inhibitor, single point]. For `O=C(NCCc1ccccc1Cl)c1ccc2c(c1)nc1n2CCOC1`, the “activity, negative = active” value was inactive: -5.08%. In the case of `O=C(OCc1cnc(Cl)s1)c1ccccc1Cl`, the “activity, negative = active” value is reported as inactive: -8.85%. With `COc1ccc(CN2C(=O)c3ccccc3C2=O)cc1C(=O)Nc1ccccc1N1CCOCC1` the “activity, negative = active” value was inactive: -19.8%. With `Cc1nc(-c2ccc(S(=O)(=O)Nc3ccc(C#N)cc3)cc2)co1` the “activity, negative = active” value was inactive: 7.23%. In the case of `Cc1cc(NC(=O)CC#N)n(-c2nc3ccccc3[nH]2)n1`, the Potency is reported as inconclusive: 15.8 µM [inhibitor, single point]. With `CC(=O)Nc1ccc(NC(=O)C(C)OC(=O)CCCN=C2NS(=O)(=O)c3ccccc32)cc1` (stereo not drawn) the Potency was inconclusive: 35.5 µM [inhibitor, single point]. For `C#CCOc1ccc(/C=C2/C(=O)ON=C2C)cc1Br`, the “activity, negative = active” value was inactive: 3.81%. With `COCCN(C(=O)C(C)C)c1nnc(-c2ccc(C(C)(C)C)cc2)s1` the Potency was inconclusive: 35.5 µM [inhibitor, single point]. In the case of `CSc1sc(-c2n[nH]c(=S)n2C)c2c1C=CCC2`, the Potency is reported as inconclusive: 31.6 µM [inhibitor, partial curve, poor fit]. In the case of `O=c1oc2c(O)cccc2cc1-c1nc2ccccc2[nH]1`, the Potency is reported as inconclusive: 11.2 µM [inhibitor, partial curve, poor fit].
